Binding data for 15 molecules are collected here from publication PMC9385660.

Sequences of proteins named here, by UniProt entry; tags and fusion partners are left off. Residues count along the entry.
UniProt Q13488: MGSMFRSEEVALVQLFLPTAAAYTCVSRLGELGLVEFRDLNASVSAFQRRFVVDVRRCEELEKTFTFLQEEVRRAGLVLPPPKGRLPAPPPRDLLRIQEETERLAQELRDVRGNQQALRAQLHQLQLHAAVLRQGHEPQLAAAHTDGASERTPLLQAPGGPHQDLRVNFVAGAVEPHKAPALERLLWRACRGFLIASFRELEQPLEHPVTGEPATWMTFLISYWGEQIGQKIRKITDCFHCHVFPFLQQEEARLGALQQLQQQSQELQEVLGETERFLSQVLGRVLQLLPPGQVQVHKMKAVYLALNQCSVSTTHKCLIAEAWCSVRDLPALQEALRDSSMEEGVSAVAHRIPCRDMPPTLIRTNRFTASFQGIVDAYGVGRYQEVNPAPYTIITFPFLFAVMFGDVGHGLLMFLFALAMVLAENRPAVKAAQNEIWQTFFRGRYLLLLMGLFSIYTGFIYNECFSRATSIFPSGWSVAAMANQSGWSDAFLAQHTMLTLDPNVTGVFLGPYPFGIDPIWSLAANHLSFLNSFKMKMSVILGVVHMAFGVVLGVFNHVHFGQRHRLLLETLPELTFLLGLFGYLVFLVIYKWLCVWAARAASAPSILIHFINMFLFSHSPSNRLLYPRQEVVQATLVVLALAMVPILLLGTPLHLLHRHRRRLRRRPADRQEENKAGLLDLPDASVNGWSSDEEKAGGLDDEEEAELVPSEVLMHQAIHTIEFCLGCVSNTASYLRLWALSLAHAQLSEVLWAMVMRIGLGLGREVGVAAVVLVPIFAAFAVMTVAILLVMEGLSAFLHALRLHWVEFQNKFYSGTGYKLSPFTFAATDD
UniProt P21281: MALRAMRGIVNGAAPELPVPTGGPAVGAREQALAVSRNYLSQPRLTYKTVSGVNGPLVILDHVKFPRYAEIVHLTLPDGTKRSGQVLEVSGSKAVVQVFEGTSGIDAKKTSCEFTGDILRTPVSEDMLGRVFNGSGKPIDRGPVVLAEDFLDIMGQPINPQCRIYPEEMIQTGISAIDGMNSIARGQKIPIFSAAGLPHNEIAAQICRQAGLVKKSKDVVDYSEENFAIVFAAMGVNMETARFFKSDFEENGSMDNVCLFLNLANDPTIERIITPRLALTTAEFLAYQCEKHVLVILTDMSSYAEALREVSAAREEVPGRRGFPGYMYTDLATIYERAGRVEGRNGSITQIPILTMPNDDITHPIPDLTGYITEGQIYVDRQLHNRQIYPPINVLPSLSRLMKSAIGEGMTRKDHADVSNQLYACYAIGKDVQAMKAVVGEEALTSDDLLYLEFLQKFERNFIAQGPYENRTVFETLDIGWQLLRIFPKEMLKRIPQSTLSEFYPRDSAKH
UniProt Q9CQ22: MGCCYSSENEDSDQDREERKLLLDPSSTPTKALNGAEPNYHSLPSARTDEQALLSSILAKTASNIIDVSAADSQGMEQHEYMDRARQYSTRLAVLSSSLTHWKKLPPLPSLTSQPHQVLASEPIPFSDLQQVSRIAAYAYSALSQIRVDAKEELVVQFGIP
UniProt P80316: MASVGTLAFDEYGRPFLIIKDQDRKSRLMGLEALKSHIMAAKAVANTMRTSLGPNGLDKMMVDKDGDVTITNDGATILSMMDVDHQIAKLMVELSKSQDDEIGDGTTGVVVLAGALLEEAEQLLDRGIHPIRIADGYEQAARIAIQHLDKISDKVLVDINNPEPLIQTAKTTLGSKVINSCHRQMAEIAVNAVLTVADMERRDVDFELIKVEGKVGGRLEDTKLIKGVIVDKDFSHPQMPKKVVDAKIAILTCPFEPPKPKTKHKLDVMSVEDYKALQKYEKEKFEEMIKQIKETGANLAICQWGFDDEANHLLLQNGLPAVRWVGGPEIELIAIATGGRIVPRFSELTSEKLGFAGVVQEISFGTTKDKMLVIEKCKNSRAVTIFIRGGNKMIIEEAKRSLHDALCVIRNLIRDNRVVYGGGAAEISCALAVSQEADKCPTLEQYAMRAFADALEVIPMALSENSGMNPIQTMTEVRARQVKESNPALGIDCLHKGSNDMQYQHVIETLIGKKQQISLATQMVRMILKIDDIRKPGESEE
UniProt Q9R1Q9, residues 33-463: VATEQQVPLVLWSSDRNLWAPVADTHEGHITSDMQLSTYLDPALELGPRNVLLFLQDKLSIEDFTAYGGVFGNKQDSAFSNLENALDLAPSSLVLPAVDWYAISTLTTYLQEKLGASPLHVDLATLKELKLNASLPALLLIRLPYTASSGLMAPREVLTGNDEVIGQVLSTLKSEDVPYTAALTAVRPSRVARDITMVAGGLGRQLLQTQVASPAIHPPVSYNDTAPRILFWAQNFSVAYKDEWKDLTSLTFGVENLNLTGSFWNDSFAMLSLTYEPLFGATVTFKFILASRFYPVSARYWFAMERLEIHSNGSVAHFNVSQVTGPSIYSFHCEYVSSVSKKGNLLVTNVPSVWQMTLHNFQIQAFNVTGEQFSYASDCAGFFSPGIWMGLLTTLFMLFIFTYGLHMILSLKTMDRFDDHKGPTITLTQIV
UniProt P11983: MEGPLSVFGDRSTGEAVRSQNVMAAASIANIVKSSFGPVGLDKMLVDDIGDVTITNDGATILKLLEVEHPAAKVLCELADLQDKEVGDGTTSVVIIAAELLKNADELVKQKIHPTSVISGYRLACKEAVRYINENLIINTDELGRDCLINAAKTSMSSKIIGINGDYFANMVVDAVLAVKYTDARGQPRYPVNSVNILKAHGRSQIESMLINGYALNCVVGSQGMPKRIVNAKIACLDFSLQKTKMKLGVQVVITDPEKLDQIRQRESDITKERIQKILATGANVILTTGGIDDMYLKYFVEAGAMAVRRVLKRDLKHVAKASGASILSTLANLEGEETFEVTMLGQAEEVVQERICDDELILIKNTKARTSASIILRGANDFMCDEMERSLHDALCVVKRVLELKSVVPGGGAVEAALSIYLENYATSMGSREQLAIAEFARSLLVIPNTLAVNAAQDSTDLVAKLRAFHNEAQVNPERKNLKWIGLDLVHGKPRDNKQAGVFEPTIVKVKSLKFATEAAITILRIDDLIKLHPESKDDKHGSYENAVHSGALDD
UniProt Q3TWL2: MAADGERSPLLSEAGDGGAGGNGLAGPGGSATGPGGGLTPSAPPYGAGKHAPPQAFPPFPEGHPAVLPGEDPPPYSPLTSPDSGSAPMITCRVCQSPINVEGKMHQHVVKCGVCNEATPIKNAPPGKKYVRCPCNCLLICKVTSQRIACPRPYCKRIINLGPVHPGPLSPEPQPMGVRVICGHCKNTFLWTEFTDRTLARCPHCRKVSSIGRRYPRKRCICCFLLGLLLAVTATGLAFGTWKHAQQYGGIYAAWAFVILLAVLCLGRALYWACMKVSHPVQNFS
UniProt O88653: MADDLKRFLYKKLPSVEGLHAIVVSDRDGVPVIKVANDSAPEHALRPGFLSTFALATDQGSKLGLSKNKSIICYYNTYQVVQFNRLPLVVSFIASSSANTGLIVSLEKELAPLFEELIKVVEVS

The target in test [1] is Flag-tagged Voa3 (V-ATPase Vo domain subunit a3, ATP6Voa3/TCIRG1) (human) (UniProt Q13488). In words: affinity purification with mass spectrometry; SILAC Co-IP from MEFs expressing empty vector and either HA-V1B2 or Flag-Voa3; lysis in 40 mM HEPES pH 7.4, 150 mM NaCl, 2 mM EDTA, 1% Triton X-100, 5% glycerol; anti-HA or anti-Flag with Dynabeads protein G, 2 h at 4 °C; full medium, 1 h amino acid starvation, or starvation + 30 min amino acid restimulation.

Test [2] deals with HA-tagged V1B2 (V-ATPase V1 domain subunit B2, ATP6V1B2) (human) (UniProt P21281). The test is described as above.

Results are given in words; binding and its absence hold for the method and conditions named. Binding seen in cells or lysates may run through a third protein. These calls come from enrichment with a bait or labelling near it, and not all partners need be listed. A no says only that the protein was not detected with the bait.

With “Lamtor 1 (subunit of the ragulator complex) (from UniProt Q9CQ22 1-161)”, in test [1], the binding result was “binds”.
In the case of “Cct5 (subunit of the chaperonin TRiC) (from UniProt P80316 1-541)”, the values for the binding result in test [2] and in test [1] were “binds” and “no binding”, respectively.
For Atp6ap1 (from UniProt Q9R1Q9 33-463), in that order: “no binding” and “binds”.
The like results for “Cct1 (subunit of the chaperonin TRiC) (from UniProt P11983 1-556)” were, in that order, “binds” and “no binding”.
The like results for Tmem55b (from UniProt Q3TWL2 1-284) were, in that order, “binds” and “binds”.
As to “Lamtor 3 (subunit of the ragulator complex) (from UniProt O88653 1-124)”, the binding entry in test [1] is on record as “binds”.

B1: Cct7 (subunit of the chaperonin TRiC) (protein, UniProt P80313 1-544)
chain: MMPTPVILLKEGTDSSQGIPQLVSNISACQVIAEAVRTTLGPRGMDKLIVDGRGKATISNDGATILKLLDVVHPAAKTLVDIAKSQDAEVGDGTTSVTLLAAEFLKQVKPYVEEGLHPQIIIRAFRTATQLAVNKIKEIAVTVKKQDKVEQRKMLEKCAMTALSSKLISQQKVFFAKMVVDAVMMLDELLQLKMIGIKKVQGGALEESQLVAGVAFKKTFSYAGFEMQPKKYKNPKIALLNVELELKAEKDNAEIRVHTVEDYQAIVDAEWNILYDKLEKIHQSGAKVILSKLPIGDVATQYFADRDMFCAGRVPEEDLKRTMMACGGSIQTSVNALVPDVLGHCQVFEETQIGGERYNFFTGCPKAKTCTIILRGGAEQFMEETERSLHDAIMIVRRAIKNDSVVAGGGAIEMELSKYLRDYSRTIPGKQQLLIGAYAKALEIIPRQLCDNAGFDATNILNKLRARHAQGGMWYGVDINNENIADNFQAFVWEPAMVRINALTAASEAACLIVSVDETIKNPRSTVDPPAPSAGRGRGQARFH
Turning to B1, the binding result in test [2] is “binds”; in test [1], “no binding”.

B2: Cct3 (subunit of the chaperonin TRiC) (protein, UniProt P80318 1-545)
chain: MMGHRPVLVLSQNTKRESGRKVQSGNINAAKTIADIIRTCLGPKSMMKMLLDPMGGIVMTNDGNAILREIQVQHPAAKSMIEISRTQDEEVGDGTTSVIILAGEMLSVAEHFLEQQMHPTVVISAYRMALDDMISTLKKISTPVDVNNREMMLSIINSSITTKVISRWSSLACNIALDAVKTVQFEENGRKEIDIKKYARVEKIPGGIIEDSCVLRGVMINKDVTHPRMRRYIKNPRIVLLDSSLEYKKGESQTDIEITREEDFTRILQMEEEYIHQLCEDIIQLKPDVVITEKGISDLAQHYLMRANVTAIRRVRKTDNNRIARACGARIVSRPEELREDDVGTGAGLLEIKKIGDEYFTFITDCKDPKACTILLRGASKEILSEVERNLQDAMQVCRNVLLDPQLVPGGGASEMAVAHALTEKSKAMTGVEQWPYRAVAQALEVIPRTLIQNCGASTIRLLTSLRAKHTQESCETWGVNGETGTLVDMKELGIWEPLAVKLQTYKTAVETAVLLLRIDDIVSGHKKKGDDQNRQTGAPDAGQE
B2: the binding result in test [2] is reported as “binds”; in test [1] it was “no binding”.

B3: flotillin-2 (protein, UniProt Q60634 1-428)
chain: MGNCHTVGPNEALVVSGGCCGSDYKQYVFGGWAWAWWCISDTQRISLEIMTLQPRCEDVETAEGVALTVTGVAQVKIMTEKELLAVACEQFLGKNVQDIKNVVLQTLEGHLRSILGTLTVEQIYQDRDQFAKLVREVAAPDVGRMGIEILSFTIKDVYDKVDYLSSLGKTQTAVVQRDADIGVAEAERDAGIREAECKKEMLDVKFMADTKIADSKRAFELQKSAFSEEVNIKTAEAQLAYELQGAREQQKIRQEEIEIEVVQRKKQIAVEAQEILRTDKELIATVRRPAEAEAHRIQQIAEGEKVKQVLLAQAEAEKIRKIGEAEAAVIEAMGKAEAERMKLKAEAYQKYGDAAKMALVLEALPQIAAKISAPLTKVDEIVVLSGDNSKVTSEVNRLLAELPASVHALTGVDLSKIPLIKNATGAQV
Consider B3, for which the binding entry in test [2] and in test [1] was “binds” throughout.

B4: Ccdc115 (protein, UniProt Q8VE99 1-180)
chain: MAVQALREELDSKCLQLLSDLEELEAKRAALNARVEEGWLSLAKARYAMGAKSVGPLQYASRMEPQVCVRASEAQDGPQTFRVIKADAQTPEEVGPSEASLRRRKGPTKTKELGSAVVPQDPLNWFGILVPHSLRQAQASFRDGLQLAADIASLQTRINWGQSQLRGLQKKLKELDPGPA
B4: the binding entry in test [2] is “no binding”; in test [1], “binds”.

B5: Cct8 (subunit of the chaperonin TRiC) (protein, UniProt P42932 1-548)
chain: MALHVPKAPGFAQMLKDGAKHFSGLEEAVYRNIQACKELAQTTRTAYGPNGMNKMVINRLEKLFVTNDAATILRELEVQHPAAKMIVMASHMQEQEVGDGTNFVLVFAGALLELAEELLRIGLSVSEVISGYEIACKKAHEILPELVCCSAKNLRDVDEVSSLLRTSIMSKQYGSETFLAKLIAQACVSIFPDSGNFNVDNIRVCKILGSGIYSSSVLHGMVFKKETEGDVTSVKDAKIAVYSCPFDGMITETKGTVLIKTAEELMNFSKGEENLMDAQVKAIAGTGANVIVTGGKVADIALHYANKYNIMLVRLNSKWDLRRLCKTVGATALPKLTPPVQEEMGHCDSVYLSEVGDTQVVVFKHEKEDGAISTIVLRGSTDNLMDDIERAVDDGVNTFKVLTRDKRLVPGGGATEIELAKQITSYGETCPGLEQYAIKKFAEAFEAIPRALAENSGVKANEVISKLYSVHQEGNKNVGLDIEAEVPAVKDMLEASILDTYLGKYWAIKLATNAAVTVLRVDQIIMAKPAGGPKPPSGKKDWDDDQND
Regarding B5, the binding entry is given as “binds” in test [2] and “no binding” in test [1].

B6: Cct2 (subunit of the chaperonin TRiC) (protein, UniProt P80314 1-535)
chain: MASLSLAPVNIFKAGADEERAETARLSSFIGAIAIGDLVKSTLGPKGMDKILLSSGRDAALMVTNDGATILKNIGVDNPAAKVLVDMSRVQDDEVGDGTTSVTVLAAELLREAESLIAKKIHPQTIISGWREATKAAREALLSSAVDHGSDEARFWQDLMNIAGTTLSSKLLTHHKDHFTKLAVEAVLRLKGSGNLEAIHVIKKLGGSLADSYLDEGFLLDKKIGVNQPKRIENAKILIANTGMDTDKIKIFGSRVRVDSTAKVAEIEHAEKEKMKEKVERILKHGINCFINRQLIYNYPEQLFGAAGVMAIEHADFAGVERLALVTGGEIASTFDHPELVKLGSCKLIEEVMIGEDKLIHFSGVALGEACTIVLRGATQQILDEAERSLHDALCVLAQTVKDPRTVYGGGCSEMLMAHAVTQLANRTPGKEAVAMESFAKALRMLPTIIADNAGYDSADLVAQLRAAHSEGHITAGLDMKEGTIGDMAVLGITESFQVKRQVLLSAAEAAEVILRVDNIIKAAPRKRVPDHHPC
With B6, the binding result is recorded as “binds” in test [2] and “no binding” in test [1].

B7: Tmem199 (protein, UniProt Q5SYH2 1-208)
chain: MASSLLAGERLVRALGPGGELEREQLPRKLRAQLEAALGKKHAGSDNATGPRRLVSFRLIRDLHQHLRERNSRLYLHELLEGSDIYFPEIVKPPRNPELVARLEKIKIQLANEEYKRITRNVTCQDAQCGGTLSDLGKQVRSVKALVVTIFNFIITVAAAFVCTYLGSQYVFTEMASRVLAALIVASVVGLAELYVMVRAMEGELGEL
For B7, the binding entry was “no binding” in test [2] and “binds” in test [1].

B8: Cct4 (subunit of the chaperonin TRiC) (protein, UniProt P80315 1-539)
chain: MPENVASRSGAPTAGPGSRGKSAYQDRDKPAQIRFSNISAAKAVADAIRTSLGPKGMDKMIQDGKGDVTITNDGATILKQMQVLHPAARMLVELSKAQDIEAGDGTTSVVIIAGSLLDSCTKLLQKGIHPTIISESFQKALEKGLEILTDMSRPVQLSDRETLLNSATTSLNSKVVSQYSSLLSPMSVNAVMKVIDPATATSVDLRDIKIVKKLGGTIDDCELVEGLVLTQKVANSGITRVEKAKIGLIQFCLSAPKTDMDNQIVVSDYAQMDRVLREERAYILNLVKQIKKTGCNVLLIQKSILRDALSDLALHFLNKMKIMVVKDVEREDIEFICKTIGTKPVAHIDQFTADMLGSAELAEEVSLNGSGKLFKITGCTSPGKTVTIVVRGSNKLVIEEAERSIHDALCVIRCLVKKRALIAGGGAPEIELALRLTEYSRTLSGMESYCVRAFADAMEVIPSTLAENAGLNPISTVTELRNRHAQGEKTTGINVRKGGISNILEEMVVQPLLVSVSALTLATETVRSILKIDDVVNTR
Consider B8, for which the binding result was “binds” in test [2] and “no binding” in test [1].

B9: flotillin-1 (protein, UniProt O08917 1-428)
chain: MFFTCGPNEAMVVSGFCRSPPVMVAGGRVFVLPCIQQIQRISLNTLTLNVKSEKVYTRHGVPISVTGIAQVKIQGQNKEMLAAACQMFLGKTEAEIAHIALETLEGHQRAIMAHMTVEEIYKDRQKFSEQVFKVASSDLVNMGISVVSYTLKDIHDDQDYLHSLGKARTAQVQKDARIGEAEAKRDAGIREAKAKQEKVSAQCLSEIEMAKAQRDYELKKATYDIEVNTRRAQADLAYQLQVAKTKQQIEEQRVQVQVVERAQQVAVQEQEIARREKELEARVRKPAEAERYRLERLAEAEKAQLIMQAEAEAESVRMRGEAEAFAIGARARAEAEQMAKKAEAFQMYQEAAQLDMLLEKLPQVAEEISGPLTSANKITLVSSGSGTMGAAKVTGEVLDILSRLPESVERLTGVSISQVNHNKPLRTA
In the case of B9, the binding entry in test [2] and in test [1] was “binds” throughout.
